Results are given in words; binding and its absence hold for the method and conditions named. In cells and extracts the contact can be indirect. Some entries that bind do so weakly or less than the wild type. Tags and fused reporters may be left off the sequences shown.
T1: wild type US2 with three HA tags added to the C-terminus (human cytomegalovirus) (UniProt P09713)
T1 sequence: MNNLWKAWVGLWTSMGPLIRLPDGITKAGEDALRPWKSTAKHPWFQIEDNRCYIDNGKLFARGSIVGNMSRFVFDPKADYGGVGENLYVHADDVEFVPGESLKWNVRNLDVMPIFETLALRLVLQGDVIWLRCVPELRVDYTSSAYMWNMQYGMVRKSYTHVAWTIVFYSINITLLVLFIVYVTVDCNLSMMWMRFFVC

Protein sequences, listed by entry. Tags and fused reporters are not part of them. Residues count along the entry.
UniProt P23284, residues 34-216: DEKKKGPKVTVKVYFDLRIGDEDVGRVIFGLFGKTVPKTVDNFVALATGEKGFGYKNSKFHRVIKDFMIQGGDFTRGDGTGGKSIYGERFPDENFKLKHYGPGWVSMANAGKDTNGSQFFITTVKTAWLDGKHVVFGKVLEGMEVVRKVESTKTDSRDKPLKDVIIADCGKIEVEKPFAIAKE

T2: PDIA6-HA (UniProt Q15084)
T2 sequence: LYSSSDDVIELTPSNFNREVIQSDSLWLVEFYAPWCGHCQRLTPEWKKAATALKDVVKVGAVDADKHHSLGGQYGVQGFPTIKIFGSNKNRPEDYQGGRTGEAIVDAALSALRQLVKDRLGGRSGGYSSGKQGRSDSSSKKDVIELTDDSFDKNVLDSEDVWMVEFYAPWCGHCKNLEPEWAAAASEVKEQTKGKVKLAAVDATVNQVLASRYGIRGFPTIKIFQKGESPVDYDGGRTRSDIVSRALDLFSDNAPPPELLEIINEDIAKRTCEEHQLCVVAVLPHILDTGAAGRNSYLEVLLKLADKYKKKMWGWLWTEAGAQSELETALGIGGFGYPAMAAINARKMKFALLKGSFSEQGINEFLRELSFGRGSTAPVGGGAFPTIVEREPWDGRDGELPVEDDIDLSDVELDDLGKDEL

B1: malectin (protein, UniProt Q14165 29-292)
chain: PGLGVAGVAGAAGAGLPESVIWAVNAGGEAHVDVHGIHFRKDPLEGRVGRASDYGMKLPILRSNPEDQILYQTERYNEETFGYEVPIKEEGDYVLVLKFAEVYFAQSQQKVFDVRLNGHVVVKDLDIFDRVGHSTAHDEIIPMSIRKGKLSVQGEVSTFTGKLYIEFVKGYYDNPKVCALYIMAGTVDDVPKLQPHPGLEKKEEEEEEEEYDEGSNLKKQTNKNRVQSGPRTPNPYASDNSSLMFPILVAFGVFIPTLFCLCRL
B2: TMEM33 (protein, UniProt P57088 1-247)
chain: MADTTPNGPQGAGAVQFMMTNKLDTAMWLSRLFTVYCSALFVLPLLGLHEAASFYQRALLANALTSALRLHQRLPHFQLSRAFLAQALLEDSCHYLLYSLIFVNSYPVTMSIFPVLLFSLLHAATYTKKVLDARGSNSLPLLRSVLDKLSANQQNILKFIACNEIFLMPATVFMLFSGQGSLLQPFIYYRFLTLRYSSRRNPYCRTLFNELRIVVEHIIMKPACPLFVRRLCLQSIAFISRLAPTVP
B3: US2 (human cytomegalovirus immunoevasin protein), wild type, untagged (protein, UniProt P09713 1-199)
chain: T1 sequence

Key:
[1] = target: T1, wild type US2 with three HA tags added to the C-terminus (human cytomegalovirus); test: co-IP; US2-3xHA stably expressed in U373-MG cells (also with stable CypC depletion or overexpression), immunoisolated from digitonin lysates with anti-HA mAb, immunoblot for endogenous partners
PDIA6-HA = target: T2, PDIA6-HA; test: co-IP; U373-MG cells transiently transfected with US2, PDIA6-HA or both; anti-HA conjugated beads; immunoblot with polyclonal anti-US2 serum
myc-tagged cyclophilin B = myc-tagged cyclophilin B (UniProt P23284); test: co-IP; U373-MG cells transiently transfected for 48 h, lysed in 1% digitonin lysis buffer; epitope-tagged protein immunoisolated with anti-HA or anti-myc mAb, partner detected by immunoblot; for US2-HA with HLA-A2 cells treated with negative control or CypC-(i) siRNA

Row | Binder | binding [1] | binding (PDIA6-HA) | binding (myc-tagged cyclophilin B)
1 | B1 | binds | – | –
2 | B2 | binds | – | –
3 | B3 | – | binds | no binding
